Values from PubChem BioAssay AID1259254 (NCATS, 2017).

Aim: 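Genome-wide screen for genes that prevent DNA re-replication in cancer cells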 (primary screen)
Cells: human HCT116 colorectal cancer cells
Reagents: single siRNA against human genes
Timing: 3 days
Detection: 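Nuclei stained with Hoechst and imaged; cell-cycle phase assigned by DNA content; G2 share scaled per plate, non-targeting siRNA 0%, GMNN siRNA 100%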
Direction: G2 robust z-score: higher = more G2 cells, more excess DNA replication
Call rule: 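Active siRNAs have a G2 robust z of 5 or more median absolute deviations over the median, which in these data means about 38% or higher of GMNN control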
The deposit covers about 59,000 reagents; this is a part drawn at random. About 1,550 of all reagents (2.6%) count as active. 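G2 share is only a proxy for re-replication; each gene was hit by three separate siRNAs, and active genes were retested.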 The numbers tell different reagents against one gene apart. Not all columns of the deposit are shown. Not stated in the record: the amount of reagent.

target gene,reagent no.,G2 robust z-score,call
FOXF1 (forkhead box F1),1,2.69,inactive
FOXF1 (forkhead box F1),2,0.209,inactive
FOXF1 (forkhead box F1),3,3.39,inactive
SKIC3 (SKI3 subunit of superkiller complex),1,0.182,inactive
SKIC3 (SKI3 subunit of superkiller complex),2,3.53,inactive
SKIC3 (SKI3 subunit of superkiller complex),3,1.11,inactive
USP21 (ubiquitin specific peptidase 21),1,-1.49,inactive
USP21 (ubiquitin specific peptidase 21),2,-1.4,inactive
USP21 (ubiquitin specific peptidase 21),3,-0.712,inactive
"NUBPL (NUBP iron-sulfur cluster assembly factor, mitochondrial)",1,-0.0592,inactive
"NUBPL (NUBP iron-sulfur cluster assembly factor, mitochondrial)",2,1.3,inactive
"NUBPL (NUBP iron-sulfur cluster assembly factor, mitochondrial)",3,-0.899,inactive
MIR34BHG (MIR34B and MIR34C host gene),1,0.725,inactive
MIR34BHG (MIR34B and MIR34C host gene),2,0.0185,inactive
MIR34BHG (MIR34B and MIR34C host gene),3,0.0486,inactive
RPL7P23 (ribosomal protein L7 pseudogene 23),1,2.58,inactive
RPL7P23 (ribosomal protein L7 pseudogene 23),2,4.61,inactive
RPL7P23 (ribosomal protein L7 pseudogene 23),3,3.78,inactive
VSX2 (visual system homeobox 2),1,0.833,inactive
VSX2 (visual system homeobox 2),2,0.196,inactive
VSX2 (visual system homeobox 2),3,3.76,inactive
SLC38A6,1,1.01,inactive
SLC38A6,2,-0.073,inactive
SLC38A6,3,-0.126,inactive
OR5B3 (olfactory receptor family 5 subfamily B member 3),1,-0.153,inactive
OR5B3 (olfactory receptor family 5 subfamily B member 3),2,-0.103,inactive
OR5B3 (olfactory receptor family 5 subfamily B member 3),3,-0.141,inactive
ARHGEF11 (Rho guanine nucleotide exchange factor 11),1,-0.423,inactive
ARHGEF11 (Rho guanine nucleotide exchange factor 11),2,-0.807,inactive
ARHGEF11 (Rho guanine nucleotide exchange factor 11),3,1.03,inactive
CCDC120 (coiled-coil domain containing 120),1,-0.706,inactive
CCDC120 (coiled-coil domain containing 120),2,0.71,inactive
CCDC120 (coiled-coil domain containing 120),3,-0.344,inactive
TPRA1 (transmembrane protein adipocyte associated 1),1,2.95,inactive
TPRA1 (transmembrane protein adipocyte associated 1),2,-0.79,inactive
TPRA1 (transmembrane protein adipocyte associated 1),3,-0.0377,inactive
CD9 (CD9 molecule),1,1.56,inactive
CD9 (CD9 molecule),2,-0.273,inactive
CD9 (CD9 molecule),3,2.11,inactive
ANXA9 (annexin A9),1,-0.195,inactive
ANXA9 (annexin A9),2,0.723,inactive
ANXA9 (annexin A9),3,0.777,inactive
LENG1 (leukocyte receptor cluster member 1),1,-0.454,inactive
LENG1 (leukocyte receptor cluster member 1),2,0.872,inactive
LENG1 (leukocyte receptor cluster member 1),3,1.69,inactive
"CASP16P (caspase 16, pseudogene)",1,0.238,inactive
"CASP16P (caspase 16, pseudogene)",2,0.129,inactive
"CASP16P (caspase 16, pseudogene)",3,-0.333,inactive

Taken from above:
Result of MIR34BHG (MIR34B and MIR34C host gene) #1 in “G2 robust z-score”: 0.725
FOXF1 (forkhead box F1) #2, call → inactive
For “call”, LENG1 (leukocyte receptor cluster member 1) #2 shows inactive
Value for CCDC120 (coiled-coil domain containing 120) #2 under “G2 robust z-score”: 0.71
NUBPL (NUBP iron-sulfur cluster assembly factor, mitochondrial) #3, G2 robust z-score: -0.899
For “call”, CCDC120 (coiled-coil domain containing 120) #1 shows inactive

Continued.
target gene,reagent no.,G2 robust z-score,call
MYNN (myoneurin),1,-0.343,inactive
MYNN (myoneurin),2,0.259,inactive
MYNN (myoneurin),3,-0.219,inactive
ACTR3 (actin related protein 3),1,-0.573,inactive
ACTR3 (actin related protein 3),2,-0.309,inactive
ACTR3 (actin related protein 3),3,-0.641,inactive
PAK1 (p21 (RAC1) activated kinase 1),1,-0.0447,inactive
PAK1 (p21 (RAC1) activated kinase 1),2,-0.792,inactive
PAK1 (p21 (RAC1) activated kinase 1),3,-0.352,inactive
HPCAL4 (hippocalcin like 4),1,-0.307,inactive
HPCAL4 (hippocalcin like 4),2,0.303,inactive
HPCAL4 (hippocalcin like 4),3,-1.07,inactive
GPATCH2 (G-patch domain containing 2),1,-0.669,inactive
GPATCH2 (G-patch domain containing 2),2,1.28,inactive
GPATCH2 (G-patch domain containing 2),3,-0.478,inactive
CPNE7 (copine 7),1,-0.319,inactive
CPNE7 (copine 7),2,1.34,inactive
CPNE7 (copine 7),3,3.83,inactive
RHNO1 (RAD9-HUS1-RAD1 interacting nuclear orphan 1),1,0.421,inactive
RHNO1 (RAD9-HUS1-RAD1 interacting nuclear orphan 1),2,-0.331,inactive
RHNO1 (RAD9-HUS1-RAD1 interacting nuclear orphan 1),3,0.628,inactive
ANXA5 (annexin A5),1,-0.148,inactive
ANXA5 (annexin A5),2,-0.319,inactive
ANXA5 (annexin A5),3,4.47,inactive
DCTD (dCMP deaminase),1,-1.17,inactive
DCTD (dCMP deaminase),2,-0.881,inactive
DCTD (dCMP deaminase),3,0.346,inactive
VAMP2 (vesicle associated membrane protein 2),1,2.32,inactive
VAMP2 (vesicle associated membrane protein 2),2,-0.81,inactive
VAMP2 (vesicle associated membrane protein 2),3,1.21,inactive
ASMTL (acetylserotonin O-methyltransferase like),1,-0.93,inactive
ASMTL (acetylserotonin O-methyltransferase like),2,-0.856,inactive
ASMTL (acetylserotonin O-methyltransferase like),3,0.742,inactive
FAM111B (FAM111 trypsin like peptidase B),1,4,inactive
FAM111B (FAM111 trypsin like peptidase B),2,0.617,inactive
FAM111B (FAM111 trypsin like peptidase B),3,0.61,inactive
CERT1 (ceramide transporter 1),1,-1.57,inactive
CERT1 (ceramide transporter 1),2,-0.63,inactive
CERT1 (ceramide transporter 1),3,0.286,inactive
